One test addresses mouse GDF-15 (mouse). Description: SPR. (In general: In SPR one partner is held on a chip, and binding of the other changes the refractive index at the surface.)
The next test addresses rat GDF-15 (rat). Put plainly: SPR.

These are yes or no findings as the source states them, for the method shown. Binding can be weak; no strength is given.

B1: CTL-002 (antibody, human IgG4 S228P, kappa, V domains shown)
VH: QITLKESGPTLVKPTQTLTLTCTFSGFSLSTSGMGVSWIRQPPGKGLEWLAHIYWDDDKRYNPTLKSRLTITKDPSKNQVVLTMTNMDPVDTATYYCARSSYGAMDYWGQGTLVTVSS
VL: DIVLTQSPSFLSASVGDRVTITCKASQNVGTNVAWFQQKPGKSPKALIYSASYRYSGVPDRFTGSGSGTEFTLTISSLQPEDFAAYFCQQYNNFPYTFGGGTKLEIKR
notes: Humanized, hinge-stabilized IgG4 (IgG4 S228P) derived from mouse antibody B1-23; captured by anti-human IgG Fc on the chip in the SPR assay; also called visugromab; CTL-001 IgG4*
As for B1, the binding result with mouse GDF-15 (mouse) and in the test with rat GDF-15 (rat) was “binds” in each case.

(Values after US20250304673A1 (CATALYM, published 2025).)
